Laboratory results from PubChem BioAssay AID2417 (National Center for Advancing Translational Sciences (NCATS), 2010).
The whole screen tested about 140,000 compounds, of which about 4,300 (3.1%) were called active. This list was built around the results that the source calls inconclusive (neither active nor inactive); the mix of calls is not that of the screen.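 Rule for the calls: active = readout at or below -70, meaning at least 70% loss of cells showing the perinucleolar compartment, a nuclear body marking cancer cells; inconclusive = readout between -30 and a set limit; inactive = the rest.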

Assay: High Content Assay for Compounds that inhibit the Assembly of the Perinucleolar Compartment;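 note: plate controls were DMSO wells for no effect and camptothecin positive control wells for full effect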
Conditions: PC3M PTB-GFP, PNC prevalence imaging, 16 h; at 10 µM; hits give low values
Outline: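 PC3M cells stably expressing PTB-GFP, 750–1000 cells/well, treated 16 h at 37 °C with compound (23 nl of library stock), in duplicate. After paraformaldehyde fixation and Hoechst stain, imaged at 20x; PNC prevalence scored by image analysis.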

| Compound | activity change (PNC), negative = inhibition |
| --- | --- |
| Cc1ccn2c(NC(=O)C(C)(C)Oc3ccc(Cl)cc3)c(-c3cccs3)nc2c1 | inconclusive: -32.4% |
| Clc1ccccc1OCc1nn2c(-c3ccncc3)nnc2s1 | inactive: 26.5% |
| COCCNC(=O)Cn1c(=O)n(Cc2ccc(C(=O)NCc3ccco3)cc2)c(=O)c2ccccc21 | inconclusive: -42.7% |
| CCOc1ccc(NS(=O)(=O)c2ccc3[nH]cc(C(=O)NC(C)CC)c(=O)c3c2)cc1 (centres undefined) | inconclusive: -36.1% |
| CC(C)OCCCNC(=O)CCC(=O)NNc1nc2ccccc2c2nc(-c3ccccc3)nn12 | inactive: 36.4% |
| COc1cc(N2CCCC2)c(OC)cc1/C=C1/NC(=S)NC1=O | inconclusive: -69.8% |
| CSCCC(NS(=O)(=O)c1ccc2c(c1)oc(=O)n2C)C(=O)NC1CCCCC1 (centres undefined) | inconclusive: -32.8% |
| O=S(=O)(c1ccc2nc(Cc3cccc(C(F)(F)F)c3)[nH]c2c1)N1CCOCC1 | inconclusive: -37.5% |
| O=C(Nc1ccc(Br)cc1F)C1CCCO1 (centres undefined) | inactive: 16.3% |
| CCc1ccc(OCC(=O)Nc2ccc(-c3nc4ccccc4o3)c(O)c2)cc1 | inactive: 28.1% |
| O=C(O)C1=C(C(=O)Nc2ccc(F)c(Cl)c2)CCCC1 | inconclusive: -55.9% |
| CCCOC(=O)NC(CC)COC(=O)Nc1cccc(C)c1C (centres undefined) | inconclusive: -62.1% |
| O=C(CN1CCC(C(O)(c2ccccc2)c2ccccc2)CC1)Nc1cc(Cl)ccc1Cl | active: -100% |
| O=C(NCc1nc2ccccc2[nH]1)c1ccc(Cl)c(S(=O)(=O)N2CCCC2)c1 | inconclusive: -67.4% |
| CCOC(=O)CSc1nc2c(c(=O)n1-c1ccc(OC)cc1)SCC2 | inconclusive: -79.8% |
| COc1cccc(-c2nnc(NC(=O)c3ccc(S(=O)(=O)N4CC(C)OC(C)C4)cc3)o2)c1 (centres undefined) | inactive: -3.3% |
| COc1cccc(NC(=O)c2ccco2)c1 | inconclusive: -55.1% |
| CCCCOC(=O)C1CN(c2ccccc2)N=C1C(=O)OCC (centres undefined) | inconclusive: -37% |
| O=C(NCCCNC(=O)c1cccs1)c1cccs1 | inconclusive: -46.2% |
| O=C(O)COc1ccc(/C=N/n2c(COc3ccccc3)nc3ccccc3c2=O)cc1 | active: -115% |
| Cc1ccc(NC(=O)COC(=O)c2sccc2C)cc1S(=O)(=O)N1CCOCC1 | inactive: 12.5% |
| O=C(Nc1ccc(Cl)c(S(=O)(=O)Nc2ccccc2Cl)c1)c1cccs1 | inconclusive: -31.4% |
| CCC1(C)COC2(OC1)C(=O)Nc1ccccc12 (centres undefined) | inconclusive: -31.6% |

Copied from the entries so far for reference:

| Compound | activity change (PNC), negative = inhibition |
| --- | --- |
| CCc1ccc(OCC(=O)Nc2ccc(-c3nc4ccccc4o3)c(O)c2)cc1 | inactive: 28.1% |
| O=C(O)C1=C(C(=O)Nc2ccc(F)c(Cl)c2)CCCC1 | inconclusive: -55.9% |

(more compounds)

| Compound | activity change (PNC), negative = inhibition |
| --- | --- |
| Cc1ccc([N+](=O)[O-])cc1NC(=S)NC(=O)c1cccs1 | inconclusive: -72.6% |
| Cc1ccccc1NC(=O)CSc1nnc(-c2ccoc2C)n1CCc1ccccc1 | inactive: 7.02% |
| O=S(=O)(/C=C/c1ccccc1)Oc1ccccc1 | inconclusive: -33.9% |
| COc1ccc(Cl)cc1N(CC(=O)NC(C)(C)C)S(=O)(=O)c1ccc(C)c([N+](=O)[O-])c1 | inactive: 34.8% |
| COc1ccc(Br)cc1CN(C)CC(=O)Nc1cc([N+](=O)[O-])ccc1OC | inconclusive: -46.5% |
| Cc1ccc(NC(=O)COC(=O)C(CC(C)C)N2C(=O)C3CC=CCC3C2=O)c(C)c1 (centres undefined) | active: -87% |
| CC(=O)Oc1ccc2oc(C)c(C(=O)N3CCOCC3)c2c1 | inactive: -20.3% |
| CCCC(=O)N=C1SC2CS(=O)(=O)CC2N1c1ccc(CC)cc1 (centres undefined) | inactive: 14.9% |
| CCSc1nnc(NC(=O)C(C)Sc2nc3ccccc3[nH]2)s1 (centres undefined) | inconclusive: -30.4% |
| COc1ccc(-c2cc(C(=O)OCC(=O)Nc3cc(C)on3)c3ccccc3n2)cc1OC | inactive: 25.7% |
| Clc1ccc(-c2c[n+](Cc3ccc(Cl)c(Cl)c3)c3n2CCC3)cc1 | inactive: 28.6% |
| CCOC(=O)c1c(-c2cccs2)csc1NC(=O)c1ccco1 | active: -100% |
| Cc1ccc(NC(=O)CSc2n[nH]c(-c3ccncc3)n2)cc1 | inconclusive: -31.6% |
| Cc1ccc2nc(C)c3c(c2c1)COC3 | inactive: -14.2% |
| CCOc1cc(/C=N/O)cc(Br)c1OCC(=O)NCc1ccccc1 | inactive: -19.9% |
| Cc1ccc(-c2nnn(CC(=O)NC3CC4CCC3C4)n2)cc1 (centres undefined) | inconclusive: -63.8% |
| CN(c1ccccc1C(=O)Nc1ccc2c(c1)OCO2)S(C)(=O)=O | active: -100% |
| CCOc1ccc(NC(=O)C2=C(C)NC(=S)NC2c2ccc(O)c(OC)c2)cc1 (centres undefined) | inconclusive: -45.5% |
| CC(C)(C)C(=O)COC(=O)CNC(=O)c1ccc(Oc2ccccc2)cc1 | inconclusive: -60.9% |
| Cc1nnc2sc(-c3ccncc3)nn12 | inconclusive: -50.1% |
| COc1ccc(-c2noc(CN3C(=O)c4ccccc4C3=O)n2)cc1 | inconclusive: -32% |
| CCc1cccc(CC)c1-n1c(SCc2cc(=O)n3ccsc3n2)nnc1-c1cccnc1 | inconclusive: -54.1% |
| CCOC(=O)N1CCN(C(=O)COc2ccc(S(=O)(=O)NCc3ccccc3)cc2)CC1 | inconclusive: -37.2% |

Random excerpt: 2 records from the list, in no set order.

| Compound | activity change (PNC), negative = inhibition |
| --- | --- |
| CCOC(=O)N1CCN(C(=O)COc2ccc(S(=O)(=O)NCc3ccccc3)cc2)CC1 | inconclusive: -37.2% |
| CCCC(=O)N=C1SC2CS(=O)(=O)CC2N1c1ccc(CC)cc1 (centres undefined) | inactive: 14.9% |

Further records.

| Compound | activity change (PNC), negative = inhibition |
| --- | --- |
| O=C(Cn1cc2c(n1)CCCCC2)N1CCCCC1 | active: -119% |
| CCS(=O)(=O)c1ccc(-c2csc(-c3ccccc3)n2)c(Cl)c1Cl | inconclusive: -39.5% |
| Cc1cccc(NC(=O)c2cc([N+](=O)[O-])ccc2NC2CCCCC2)c1 | inconclusive: -47.2% |
| CCc1ccc(OCC(=O)NCCOc2ccccc2)cc1 | inconclusive: -44.1% |
| CCCCn1nnnc1NCc1cccnc1 | inactive: 9.07% |
| COc1ccc(OC)c(-c2cc(C3CCN(c4cc(Cl)nc(N)n4)CC3)[nH]n2)c1 | inconclusive: -33.6% |
| CN1CCc2nc(SCC(=O)Nc3ccc(OC(F)(F)F)cc3)c(C#N)c(-c3cccs3)c2C1 | inactive: -1.56% |
| CCOC(=O)c1c(CSC(=N)N)n(-c2ccc(C)cc2)c2cc(Br)c(OC(C)=O)cc12 | inactive: 56.7% |
| CCC(=O)N1CCN(c2ccccc2NC(=O)Cc2ccc(Cl)cc2)CC1 | inconclusive: -69.6% |
| O=C(Nc1ccc2ccccc2c1)/C(=C\c1ccc2c(c1)OCO2)NC(=O)c1ccco1 | inconclusive: -46.3% |
| Cc1ccc(C2Nc3ccccc3NC3=C2C(=O)OC(C)C3)cc1 (centres undefined) | inconclusive: -57.8% |
| Cc1ccccc1C(=O)N1CCN(c2ccc([N+](=O)[O-])c(NCc3cccnc3)c2)CC1 | inactive: 42.9% |
| Cc1cc(C)nc(SCc2nc(N)nc(-c3ccccc3O)n2)n1 | inconclusive: -33.1% |
| Clc1c(CSc2nc3ccccc3o2)nc2ccccn12 | inconclusive: -59.5% |
| Nc1nc2n(n1)C(c1c(F)cccc1Cl)CC(c1ccc(F)cc1)N2 (centres undefined) | inconclusive: -39.1% |
| O=C(NC1CCN(Cc2ccccc2)CC1)C1CCN(S(=O)(=O)c2cccc3cccnc23)CC1 | inconclusive: -30.9% |
| CCOC(=O)c1sc2nc3c(SCC(=O)O)cc(C(=O)c4cc(F)ccc4O)cn3c(=O)c2c1C | inconclusive: -68.1% |
| Cc1ccc(-n2c(SCC(=O)NCc3ccco3)nnc2-c2cccnc2)cc1 | inactive: 1.55% |
| COC(Cc1n[nH]c(=S)n1-c1ccccc1)OC | inconclusive: -38.1% |
| Cc1csc(=NC(=O)c2ccccc2)n1C | inconclusive: -33.5% |
| Cc1csc(SCC(=O)NC(=O)NCc2ccccc2)n1 | inconclusive: -38.8% |
| COc1ccc(OCCn2cc(/C=N/NC(=O)c3ccncc3)c3ccccc32)cc1 | inconclusive: -33.8% |
| Cc1cc(C(F)F)n2ncc(C(=O)N3CCC(C(N)=O)CC3)c2n1 | inactive: -17.6% |

| Compound | activity change (PNC), negative = inhibition |
| --- | --- |
| Cc1ccc([N+](=O)[O-])cc1NC(=O)c1ccc(-c2ccccc2)cc1 | inactive: -28.4% |
| Cc1ccc(C(=O)N/C(=C\c2ccc(-c3cccc([N+](=O)[O-])c3)o2)C(=O)NC(C)(C)C)cc1 | inconclusive: -38.4% |
| CC(C)OC(=O)C1C2C=CC3(CN(Cc4cccs4)C(=O)C13)O2 (centres undefined) | inconclusive: -33.1% |
| CC(C)(C)C(=O)Nc1nnc(Cc2ccccc2)s1 | inconclusive: -61.3% |
| Cc1ccc(C(=O)C2(C)C3c4cc(Br)ccc4OC(=O)C32C(=O)c2ccco2)cc1 (centres undefined) | inactive: -14.5% |
| O=C(COC(=O)c1ccc2c(c1)OCO2)NCc1ccc(Cl)cc1 | inconclusive: -64.5% |
| COc1ccc2c(COC(=O)c3n[nH]c4ccccc34)cc(=O)oc2c1 | inconclusive: -44.7% |
| Cc1nc(SCCO)c2oc3ccccc3c2n1 | active: -108% |
| O=C(CN1CCN(c2ccc([N+](=O)[O-])cc2)CC1)Nc1ccccn1 | inconclusive: -75.1% |
| Cc1cc(C)n(-c2nc3nonc3nc2-n2nc(C)cc2C)n1 | inactive: 16.2% |
| O=C(CSc1ncn(-c2ccccc2)n1)Nc1nccs1 | inactive: -2.32% |
| CCOc1cc(CN2CCN(C(=O)c3ccco3)CC2)ccc1OC | inconclusive: -55.5% |
| O=C(NCc1ccccc1)C1CCCN(C(=O)Nc2ccccc2)C1 (centres undefined) | inconclusive: -37.3% |
| O=C(Cn1c(=O)oc2ccccc21)NC(=O)NCc1ccco1 | inconclusive: -34.8% |
| CCOC(=O)NC(O)C(=O)c1cccs1 (centres undefined) | inconclusive: -34.5% |
| CCn1c(=O)c([N+](=O)[O-])c(NCCc2ccccc2)c2ccccc21 | inconclusive: -39.9% |
| CSc1ccccc1NC(=O)c1ccc(Cl)s1 | inactive: 7.83% |
| CN(C)c1ccc(CNCCC2(O)CCOC(C)(C)C2)cc1 (centres undefined) | inactive: 5.11% |
| Cc1cnn(C(=O)c2oc3ccccc3c2C)c1 | inconclusive: -52.1% |
| NC(=O)C1CCN(c2nc(-c3ccc(Br)cc3)cs2)CC1 | inconclusive: -56.8% |
